According to patent US20090169552A1 (FRED HUTCHINSON CANCER RESEARCH CENTER, published 2009):
Results are given in words; binding and its absence hold for the method and conditions named. Some entries that bind do so weakly or less than the wild type.

Assays:
[1] = molecular target: T1, ectodomain-only MICA, expressed in bacteria (human) (UniProt Q29983); assay: purified proteins mixed, non-reducing SDS-PAGE
T1 sequence: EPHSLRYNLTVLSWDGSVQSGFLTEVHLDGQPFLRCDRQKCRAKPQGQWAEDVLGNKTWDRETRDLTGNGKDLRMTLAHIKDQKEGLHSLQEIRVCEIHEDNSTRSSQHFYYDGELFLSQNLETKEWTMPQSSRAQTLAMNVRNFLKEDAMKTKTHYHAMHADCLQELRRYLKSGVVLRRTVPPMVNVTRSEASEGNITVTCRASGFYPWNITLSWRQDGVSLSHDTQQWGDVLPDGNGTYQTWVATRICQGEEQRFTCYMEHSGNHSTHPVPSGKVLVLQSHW

[2] = molecular target: T2, ERp5 (endoplasmic reticulum protein 5) on the cell surface (Homo sapiens (Human)) (UniProt Q15084); assay: flow cytometry, inhibition of MICA tetramer staining of tumor cells
T2 sequence: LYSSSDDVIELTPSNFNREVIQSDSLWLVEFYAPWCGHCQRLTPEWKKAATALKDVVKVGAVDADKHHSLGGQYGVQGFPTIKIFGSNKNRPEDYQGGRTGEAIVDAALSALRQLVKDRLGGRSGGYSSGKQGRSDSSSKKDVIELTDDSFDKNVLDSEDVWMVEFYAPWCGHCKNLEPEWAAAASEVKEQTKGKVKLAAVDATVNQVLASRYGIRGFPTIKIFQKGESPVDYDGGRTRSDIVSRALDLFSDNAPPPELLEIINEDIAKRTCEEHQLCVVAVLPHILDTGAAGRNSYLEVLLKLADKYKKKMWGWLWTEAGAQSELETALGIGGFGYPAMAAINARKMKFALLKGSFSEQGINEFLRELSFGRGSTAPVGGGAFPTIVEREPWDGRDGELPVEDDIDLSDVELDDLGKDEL

B1: C39S mutant of ERp5 fragment 1-118 (enzyme, not shown: small tags and cut ends)
chain: LYSSSDDVIELTPSNFNREVIQSDSLWLVEFYAPWCGHSQRLTPEWKKAATALKDVVKVGAVDADKHHSLGGQYGVQGFPTIKIFGSNKNRPEDYQGGRTGEAIVDAALSALRQLVKD
Q: With B1 as the binder, how does the binding [1] read?
A: Its binding is “binds”.

B2: bacterial rMICA (non-glycosylated MICA expressed in bacteria) (ligand)
chain: EPHSLRYNLTVLSWDGSVQSGFLTEVHLDGQPFLRCDRQKCRAKPQGQWAEDVLGNKTWDRETRDLTGNGKDLRMTLAHIKDQKEGLHSLQEIRVCEIHEDNSTRSSQHFYYDGELFLSQNLETKEWTMPQSSRAQTLAMNVRNFLKEDAMKTKTHYHAMHADCLQELRRYLKSGVVLRRTVPPMVNVTRSEASEGNITVTCRASGFYPWNITLSWRQDGVSLSHDTQQWGDVLPDGNGTYQTWVATRICQGEEQRFTCYMEHSGNHSTHPVPSGK
Q: B2 was tested. Which binding [2] did it give?
A: The binding was “binds”.
